# Data as given in US20240197823A1, “CATIONIC ANTIMICROBIAL PEPTIDES AND USES THEREOF” (priority 2021, published 2024).
# Not every detail of the peptide structures is certain; ends, links or a residue may be inferred. No end group written: not given here.
# Columns and labels:
# [1] = system: MDR clinical strains of ESKAPE pathogens and E. coli provided by the CDC (AR isolates panel); assay: Advanced testing, MIC against CDC AR isolates panel; assay type: cell-based; settings: colistin-resistant strains
# Method: Bacteria. Bacterial clinical isolates, used for initial screening and in previous studies [Greber K E et al., 2017], were anonymously provided by the clinical microbiology laboratory of the University of Pittsburgh medical Center. The panel used for secondary screening was from CDC (Table 4), with resistance profiles data. Bacteria are stored in lock-secured −80° C. freezer and typically retrieved by obtaining single colonies on agar plates prior for subsequent liquid broth cultures. Suspensions of test bacteria were prepared from log phase of growth by diluting overnight cultures at 1:100 with fresh cation-adjusted MHB (MHB2, Millipore Sigma, USA) and incubating for additional 3-4 hours. Bacteria were spun at 3000×g for 10 minutes and the pellet resuspended in test condition media (Millipore Sigma, USA) to determine bacterial turbidity using a Den-1B densitometer (Grant Instruments, USA) at 0.5 McFarland (unit of bacterial density) corresponding to […].
# Antibacterial assays. […] The bacterial cells were kept in an incubator for 18 hours at 37° C., which is linked to a robotic system that feeds a plate reader every hour with one of 8×96-well plates. This set-up allows the collection of growth kinetic data at A 570 (absorbance at 570 nm) to examine growth inhibition in real time (BioTek Instruments, USA). […] Data were analyzed using GraphPad Prism software.
# [2] = system: P. aeruginosa strain PA239; assay: Bactericidal assay in FBS-containing medium (FMP); assay type: cell-based, Pseudomonas aeruginosa; settings: PA239, FMP (FBS 15%, MHB2 25%, PBS 60%), 3 h
# Method: (§1) To test whether PAX follow this common mechanism, the experiment initially examined the bactericidal activity of the top selection, PAX E35, against the MDR P. aeruginosa strain PA239 (resistant to all 12 test antibiotics, including colistin, Table 6). Bactericidal properties were assessed using a medium called FMP (FBS, 15%; MHB2, 25%; PBS, 60%) that is more physiologically relevant than MHB2 with the inclusion of saline and fetal bovine serum, a known inhibitory condition for many AMPs [Di Y P et al., 2020; Deslouches B et al., 2005]. […] In addition, E35 killed 2 logs of the bacterial cells within the first minute of treatment at 2 μM and 4 μM, compared to the non-effective tobramycin (FIG. 6B). No bacterial cells survived E35 treatment after 5-10 minutes of incubation. […]
# (§2) Antibacterial assays. […] The bacterial cells were kept in an incubator for 18 hours at 37° C., which is linked to a robotic system that feeds a plate reader every hour with one of 8×96-well plates. This set-up allows the collection of growth kinetic data at A 570 (absorbance at 570 nm) to examine growth inhibition in real time (BioTek Instruments, USA). […] MBC (minimum bactericidal concentration) was determined as the peptide concentration at which complete bacterial killing was observed [Rozek A et al., 2000]. […] Data were analyzed using GraphPad Prism software.
# [3] = system: K. pneumoniae (KP125); assay: Immunocompromised murine K. pneumoniae infection treatment model; parameters: species or system mice; settings: mouse, in vivo, ip, 4 mg/kg
# [4] = system: MDR strain PA239; assay: Membrane permeabilization, PI incorporation by real-time video imaging; assay type: cell-based, Pseudomonas aeruginosa; settings: PA239 at high inoculum (5×10^8 CFU/mL); E35 at 8 μM
# Excerpt: (§3) Determination of membrane permeabilization. To examine whether the selected peptides kill their bacterial target mainly by membrane permeabilization, this study used PI incorporation by the MDR strain PA239 (5×10^8 CFU/mL) quantitated by flow cytometry (Novocyte, USA) or visualized by video imaging using the digital microscope EVOS M7000 (Thermo-Fisher, USA) in bright field or red fluorescence channel. In the flow cytometry experiments [Deslouches B et al., 2015], bacterial cells were either untreated or treated with different peptide E35 concentrations in MHB2 for 1 hour at 37° C. The bacteria-peptide mixture was washed with PBS using an Eppendorf centrifuge at top speed for 7 minutes and incubated with PI in the dark for 15 min at room temperature. Tobramycin was used as a negative control with a 3-hour long incubation. For video imaging, the broth medium was reduced to 20% in PBS (treated or untreated) to decrease the rate of cell division and PI incorporation assessed over time. Video images were recorded in real time using the 40× objective either in bright field or red fluorescence channel.
# [5] = system: P. aeruginosa strain PA239; assay: Killing kinetics; assay type: cell-based, Pseudomonas aeruginosa
# Method: as §1, §2
# [6] = system: MDR strain PA239; assay: Membrane permeabilization, PI incorporation by flow cytometry; assay type: cell-based, Pseudomonas aeruginosa
# Excerpt: as §3
# [7] = system: P. aeruginosa PA239; assay: Murine P. aeruginosa infection treatment model; assay type: in vivo, CD-1 mice
# [8] = PA239, 5 mpk, 5 h post-treatment
sequence,measurement,setting,value
RRVWRWVRRVWRWVRR [E35],cross-resistance with colistin,[1],observed with two (PA229 and KP542) of the 11 colistin-resistant strains
same,concentration at which the peptide killed all bacterial cells,[2],2 µM
same,reduction of bacterial burden in the blood,[3],> 3 logs
same,reduction of bacterial burden in the lungs,[3],> 3 logs
same,PI incorporation by real-time video imaging,[4],substantial incorporation of propidium iodide (PI)
same,incubation time after which no bacterial cells survived,[5]; PA239,5 to 10 min
same,bacterial cells killed within the first minute of treatment,"[5]; PA239, at 2 μM and 4 μM",2 logs
same,PI incorporation,"[6]; PA239, 1 μM",81%
same,PI incorporation,"[6]; PA239, 4 μM",97%
same,reduction of bacterial burden in the blood,"[7]; PA239, 5 mg/kg, 4 h post-treatment (FIG. 7B legend)",> 10 fold
same,reduction in lung bacterial load compared to mock-treated mice,[7]; [8],"10,000 fold"
same,reduction of bacterial burden in the blood compared to mock-treated mice,[7]; [8],10 fold
same,mice with no signs of infection when monitored up to 7 days,"[7]; PA239 IP, E35 5 mpk systemically one to two hours after bacterial exposure",12/13
